Article PMC6811503
These are yes or no findings as the source states them, for the method shown. In cells and extracts the contact can be indirect. These calls come from enrichment with a bait or labelling near it, and not all partners need be listed. Where a sequence is shown, tags or fusion partners need not be part of it.

T1: Pbp1-4×FLAG (C. neoformans) (UniProt J9VND4)
T1 sequence: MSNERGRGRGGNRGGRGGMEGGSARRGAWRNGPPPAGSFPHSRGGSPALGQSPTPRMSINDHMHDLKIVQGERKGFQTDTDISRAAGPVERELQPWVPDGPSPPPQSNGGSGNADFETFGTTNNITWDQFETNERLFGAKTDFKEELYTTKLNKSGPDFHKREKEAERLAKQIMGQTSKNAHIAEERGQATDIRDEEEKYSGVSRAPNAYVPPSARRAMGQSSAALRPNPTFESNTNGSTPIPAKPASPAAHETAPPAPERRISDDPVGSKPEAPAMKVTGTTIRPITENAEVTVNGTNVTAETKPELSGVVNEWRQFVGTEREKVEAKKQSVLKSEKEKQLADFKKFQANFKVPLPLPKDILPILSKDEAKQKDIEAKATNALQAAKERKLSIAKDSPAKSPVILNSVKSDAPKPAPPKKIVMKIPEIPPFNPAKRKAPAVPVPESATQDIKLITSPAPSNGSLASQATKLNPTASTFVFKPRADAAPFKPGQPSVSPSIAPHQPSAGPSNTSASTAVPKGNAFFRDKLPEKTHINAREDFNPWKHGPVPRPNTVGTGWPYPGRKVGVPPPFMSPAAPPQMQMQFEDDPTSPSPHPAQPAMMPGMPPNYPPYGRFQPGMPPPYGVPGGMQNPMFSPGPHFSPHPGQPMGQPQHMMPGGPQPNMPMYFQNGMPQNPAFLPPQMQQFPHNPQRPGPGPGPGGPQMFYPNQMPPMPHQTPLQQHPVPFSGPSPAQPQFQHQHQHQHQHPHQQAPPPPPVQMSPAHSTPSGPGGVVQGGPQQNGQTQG


Target: T1, Pbp1-4×FLAG (C. neoformans)
Assay: affinity purification with mass spectrometry; anti-FLAG M2 affinity gel on lysate of HP181 (Pbp1-4xFLAG), untagged H99 as control; cells grown at 30°C then 1 h at 37°C; lysis buffer 50 mM Tris-HCl pH 7.5, 150 NaCl, 0.5 mM EDTA, 0.5% Triton X-100; 4°C; one Coomassie-stained band seen only with HP181 was excised, digested with trypsin and analysed by LC-MS/MS

Binder | binding
Utp5 (protein, UniProt J9VI77 1-714) MAPRQPVAGPSKPKHSQQPAIQSPPAPAAVSAFNSTRTLFALASPVLGQADKVQVWDVAGDRVISEWEVVGASKASSVCFTTVPSDAASTKKKRRKSGSGRGAEEEVVLVTTSKSQLLVLSTKQTEPLRTLDLPASVTAAWSEERASILATASSLLVLSADASSISHTFTLPSSLSSPTAITILPTSTAESLHVLVASSLVVTLHLSLASQEVTFVSSPLPASTSSISSLLPLPLTEQGASFLVVSEDDRTISQYTLTSPQSPARLSYRYASPTLSSAHSITADPDLLAVLHESGEISLFRLPSELDLSRPQSDAKPSTVKIVEGKEERTARLCRVAFAPVDDGASGALLCGRLTGGGRVKWSRAIYELPEGGLRPVTVVKVEAQELVGASSVSETVPVQRYVAPNTVNEAAPEDVDEAPVSQLPSDVNMAELSLGERMLAPDSQEADTGSKPAASSAGVTLDGPVNAASLTRVLVQALHTSDPALLTLCLSHRNPVLIRNTIRKMPPQLALPLLKACVERLGQGKGANKRGGGRGAAQNEQQGRGTVEWVKGVLVERGSILMTIPSLPVHLASLSQLLQNRLELNQPLQTLSGRLDLALAQITMRRIAAEQALENAKNGGQKGGEGEIYVEGESEDEDEIIEVGEDGGEIEDIDMGGLSESDESEEEEEEEEDEDEDEESDDDPLDSGSDNDLLDLQAEESGSDDEEESEDED | binds
Pch2 (protein, UniProt J9VND0 1-576) MSNIVEFSAPSSRSSSSKARNFVSPSTRLSKTLCLEKPFENINGNHEVESHIYKDEDVMEEDIMGEESMLVDTDQEEDSDADEEKEVIHVEVRQKSFSHLREQPIMQIVTQFIQEDLARVELGCELSGWNDIKVLRDHVERIWVEEGGVASVQVPEVDIQVHVYKASLNNEVEDFSADLDDDDSEEKVSAASVRTLPSAELDGIWDTLVYSDDIKARLLNYIYSTILFSESDIDFNVIAWNRVILLHGPPGTGKTSLCRALAQKMSIRLSQKYRHGKIIEINSHSLFSKWFSESGKLVQKLFQTVTEMVEDESGFVVVMIDEVESLTAARASAMKGNDPSDSLRVVNALLTQLDKLRTRKNVLVVTTSNLVDAIDEAFISRVDLLESVPLPPPRAIYSILSGCLKECITKKLIKRCRILDWKAAEEAQRERKFAGEVSIAEKGKEAREVRERGVAASLADLAVRCHAIELSGRTLRKLPVIAHARYLSSSSSSTSSMGEYRSLKVERWIEAMHKVVDVEQEKKHGLARGGSTLDAGDGETLTRRDGINGHAEAHGYGHAYMEKNEVGMMVGTKVKH | binds
Yta12 (protein, UniProt J9VGL8 1-817) MSLRALSLRRLPRYSALARPFFSRTYATPGSPKPSRNPPPPPGLESVFGGSAGKQGTTVAPKPPGVGPPSGPSLPKKPDVGLPGLEGEENRPEDQKEQDEPRRPKLSEQLSGKAGKRVTTGGGGGSGGSGGGAGGPGGQPGGFGGMTPNQLLLLAVSTYALWSMTAPDDVRTKEITWQEFRNSLLARGLVSSLEVVNRNKVRVHLHNPLSGQPQQTNPTGSGSLPSPSHGPAPYQFTIGSLEAFENLLLASQDELGIPPAERVPVSYREEISTFQTIMHFAPTLLIAGLLLWMARRGGSAMGGGGPGGGIFGVGKSRAKMFNKDEQVSVRFKDVAGMDEAKEEIMEFVKFLKEPLKYEKLGAKIPRGAILSGPPGTGKTLLAKATAGEAGVPFLSVSGSEFVEMFVGVGPSRVRDLFANAKKNAPCIIFVDEIDAIGKSRGKGGNFGGNDERESTLNQLLVEMDGFGTNEHVVVLAGTNRPDVLDSALMRPGRFDRHIAIDRPDIGGRRQIFAVHLKPITLAPDLTIERIAEKLALLTPGFSGADIANVCNEAALRAARHGGEVVTEADFDGAIERVIAGLERKSRVLGKDEKKTVAYHEAGHAVCGWFLEHADPLLKVSIIPRGVGALGYAQYLPKERFLFSTEQLLDRMSMTLGGRVAEEIFFGRITTGAQDDLQKITKMAFEVCANYGMDPAIGPISYGGRDQQGEGFQKPFSEATAEALDKAVKKMVIEAHDRTTRLLTEHKEDVEKVAKLLLVKEVITREDMRLTLGPRPFANKDEMDDLIERELDQKKQEKEEQEADGPVPQLAFKPIKVD | binds
CDC53 (protein, UniProt J9W365 1-775) MSASASGSSWTEPTKAQAPPKDADLKQAWAFLSVGVDHIMTRLSFGMSYSYYILLYTAIYNYCTQPGKTGLTSFSPQRGGASLQGADLHRSLHNWLSVHCKSMREEAEKLPDQELLKYYARQWDRYTRGALYVNKLFNYLNKHWVKREKDEGRKDVYQVYTLALVSWKNNFFDHFTDNKGTSRLTQALLRQIQQQRNGEEVDSSLLKKVIDSYVSLGLDEADAQRQNLDTYRKHFQAQFLEATDTYYRAESSAFVGSNSVSDYMKKAEARLQEEADRVNLYLHDNTRNDLKTRCEKVLIEEHQAIMWDEFQTLLDSDRVDDLARMYGLLSRVLNGLDPLREKFGQHVRRTGRAAVEKVLPAPGAVNEAGKAESLDPKAYVEALLEVHGKYTSMVEGPFRGEMGFNRALDQACGDFCNSNAACTVSTKSPELLASYCDLLLRKSNKDSDAESLEASLSKAMIIFNFIDDKDVFHKFYQKKLAQRLVGSLSASDDAESSMITKLKELSGFEYTNKLSKMFTDVNLSKDLMERFNEKEREKGVASDIDFQPLVLGSNSWPLHPQQTDFAIPREIQALYDRFNAFHGEVHQGRTLNWLWHISKNELRTTYLNQKYILMTSAYQMAILTQFNVSDTLSYKDIEAGTKLSPTVLKPQLGLLVKLKILLNTDEEYSLNTGFKSKKIRVNLNQTIKSEARAEQKEVIAAVDEDRKFVYQATIVRLMKGRKTMQHQALIQEVTAQISSKFTPKIPEIKKAIEYLIDKEYLERAPDSNNTYNYLA | binds
HEF3 (protein, UniProt J9VQZ9 1-1055) MAPAATAAASSGKGSFDLATLFVADKAARDEAGLALADAVKKSGVEFFTQIGFNDAIVKALNDKKSQSAREGACEVISTLCENGAAQLLEPHVISSAENTPFPALLEAFADKVAAVKTAAIAAVKAIVQSMNPWASFVLLPALLNLIRTSGKWQIKAGSLEILQQLITSAPFQMGEAMPDLVPVLAEAVWDTKSDVKKAAKATLEKAVSLVENKDIEKFVPALVKSLLNPIEEVPKTISLLSATTFVSEVTAPTISLIAPLLIRGLDERPTATKRKVCVIADNMSKLVDSEYTVRPFLPQLLPRLIKTSETIADPEARSVANRAIVTLRRIGKVPAESDGSDLPPLPVAEGPHLATNFVALVKKHGGVSVEQTNPGLAYAGVLAASLVNHHNFDQKTWESTLPPYLKLALPSYDSLPAVRELLQKKADEAETDDAKFPDEEEGEDLCNIEQFNLAYGAKILLHHANMRLKRGHRYGLCGRNGSGKSTLMNAIINNQVEGFPPPTEVRTFYVQHDIDGSEAEISILDWVLGDKRLLATPDEIKSTLESVGFDEVKQKNSIGSLSGGWKMKLALARAILFKADILLLDEPTNHLDVLNVDWLINYLTSLTRCTSIIVSHDSDFLNRTVTDVLHLNNFKLKRYPGNLEDFVQHVPEAKSYYQLDVAEDYQFKLPNPPLLDGVKTKEKSLLKMRNVSFQYPGSSIQQLYDISLQVSLSSRVAILGPNGSGKSTLVKLLTGETEPNLGGQVWKHPNLVIGYVAQHAFHHIDNHLDSTPLEYMLWRYQTGEDLEEMHKANRVMTEAEIAKMKEGATVIKDGVKRIIDELVARKKLKQSYEYEVSFKGMSSAENIWISRDELVARGFEKKVMELDTREAQRLGLMRPLVRREIEKHFEDFGLDAEFVSHNSMRGLSGGQKVKVVLGAATWRRPHIICLDEPTNYLDRESLAALIAALKNFEGGVLIITHNREFSESICTEVWAMREGYLEASGHNWVEGQGSGERIDKKAADDDEVEYDALGNPIVKAKKEKKLSAADKRKAKKDRMARRKRGEEVFSDEEL | binds
CNAG_03494 (protein, UniProt J9VVS5 1-550) MSDMEINVKTLKVAELKEELSKRGLDTKGLKKDLAERLQGALDAEANPPSSEAAPAQAEEAPGSRPSTPPAPDVAAEPSPSRPQTPPLAQDSSAPLAPSTPSLPASDKGVGSVMVDGYPEALEKQAAEVKDDADMVETQPKALDEEVAKEVAKEEGKAVLPLTPSPPPRSLSPLPVEEEKKEEQREEEAERKFEAQSETKSEPSAPVEKDAKVQEDQQIAPPSPQSPADKKRPLPPSPAPPAKKSRTTDEVPIAFSHAIHPPTSTLFISNLKRPFMHSALHEYLFSTAPESSPPTLPPARTPFASDEYPGLWLSGVKDHAFAVYPSVEDALVAAQRIDNVQWPEDTGSALTIEFIADDKLLALVQEEEQAWTNGRQKLNLKVIKRDDGEFEFTHEGVGGLGRAPMRGGGPLRGVGMRGGVQGGYPPHHPGGGFGRPQGPPGQFGAVSAGGPRAPPRPVPLTGVNAIGVAGGRGGGAIGIRGRGGFGGGPGGHGRIDGPPLHGHGHGHGHAMQQRDPINEELKMRPTRFRPRLFWKKGPGAVEGLARGDGR | binds
Pob3 (protein, UniProt J9VXA2 1-588) MSTVTFENIFHGDSADLGKLRFNPVGFGWKAYQSEDNNPTTYNGSDIRHATWFRVARHFQLRLGMRNSEKPRISFDGFKRDDLDKIKRTLQEYFNITLETRDTSLKGWNWGEAQVKGSDLVFQVQGKTAFDVPLSQVANSNIAGKYEVALEFNPPSNYKFDPKDLNKRPPDEMVEMRFYIPGKSTKKAGSDAGSGGEETELDEEGNEVSAADAFHSLIKEKADIGAVVGDSIVVFEDCLILTPRGRFSIEVYADSIRLVGKSTDHRVPFTSIHRIFLLPKLDDLHVQLVLGLDPPIRQGATRYPFLVAQWPKDEVVNAELNLTDEELAQYPDLEKTYEATTFQVVSRVLKALTGKKVTPPGSLRNAQGLNGIRANVKAVQGELYFLEKGLIFISKQPILIDFSKTDSISFSRVGGGVASARTFDMRVVSKTGGADHVFSAINKQEVGPISSFLQSKNIRLKNEMEEAIVDIDEPFSDDDEEMESASEDERPSRAKNDKSKTKPVKKLADDDEDESEDEDFEDESSDGGSPSESDSDDDSGMASDASDPMMEELRKKTQAKRTKAKETSGSGSEEEKPKKKKVKKDDDE | binds
